Some of the results follow. Residues, ends and D or L forms follow the SMILES beside them. *: point of attachment. Cbz = O=C(OCc1ccccc1)*
Key:
Experiment in all cases: log2 fold change, soluble protein after heating vs DMSO (PISA); higher = thermal stabilisation; K562 cells, 10 uM, 30 min; active = over 0.2 and 3.5 SD of the protein, either way, in both replicates (recomputed)
[1] = compound: C#Cc1cccc(Nc2ncnc3cc(OCCOC)c(OCCOC)cc23)c1 [erlotinib]
Procedure, shortened: (§1)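 Soluble protein was defined as the supernatant after 21,000xg for 90 min. It came from K562 cells at 2×10^6 cells/mL given 10 μM compound for 30 min, heated in aliquots for 3 min across 48°C-58°C, pooled, and extracted in PBS with 0.5% NP-40 at 4°C, and was quantified by TMTpro 16plex LC-MS/MS with equalised channel sums. Thermal stability against control samples, from duplicates, is reported as log2 fold change.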

The chains behind the UniProt entries cited, without tags or fusion partners. Where a name states a change or a piece, a line headed by the entry shows the natural chain unless it says otherwise.
UniProt Q96GQ7: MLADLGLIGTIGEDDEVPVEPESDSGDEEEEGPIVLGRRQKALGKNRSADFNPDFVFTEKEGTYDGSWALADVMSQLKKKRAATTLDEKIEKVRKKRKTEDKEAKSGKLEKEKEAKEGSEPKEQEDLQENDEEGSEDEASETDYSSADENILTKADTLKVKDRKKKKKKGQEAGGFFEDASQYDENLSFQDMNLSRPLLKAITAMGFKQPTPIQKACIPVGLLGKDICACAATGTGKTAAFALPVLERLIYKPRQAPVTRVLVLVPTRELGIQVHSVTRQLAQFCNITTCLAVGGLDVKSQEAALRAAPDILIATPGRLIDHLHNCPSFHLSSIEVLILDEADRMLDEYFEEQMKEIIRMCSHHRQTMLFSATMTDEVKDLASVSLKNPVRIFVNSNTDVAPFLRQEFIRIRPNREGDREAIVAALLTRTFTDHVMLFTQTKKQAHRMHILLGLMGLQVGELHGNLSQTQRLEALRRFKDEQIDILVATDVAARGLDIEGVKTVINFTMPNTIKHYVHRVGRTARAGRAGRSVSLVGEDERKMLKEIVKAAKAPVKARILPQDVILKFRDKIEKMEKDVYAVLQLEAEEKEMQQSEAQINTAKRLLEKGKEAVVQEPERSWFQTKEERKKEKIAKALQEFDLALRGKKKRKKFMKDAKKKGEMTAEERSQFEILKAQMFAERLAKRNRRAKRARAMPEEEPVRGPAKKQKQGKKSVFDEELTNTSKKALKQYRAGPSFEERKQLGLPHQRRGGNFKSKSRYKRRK
UniProt Q8TCE6, whole entry, looked up: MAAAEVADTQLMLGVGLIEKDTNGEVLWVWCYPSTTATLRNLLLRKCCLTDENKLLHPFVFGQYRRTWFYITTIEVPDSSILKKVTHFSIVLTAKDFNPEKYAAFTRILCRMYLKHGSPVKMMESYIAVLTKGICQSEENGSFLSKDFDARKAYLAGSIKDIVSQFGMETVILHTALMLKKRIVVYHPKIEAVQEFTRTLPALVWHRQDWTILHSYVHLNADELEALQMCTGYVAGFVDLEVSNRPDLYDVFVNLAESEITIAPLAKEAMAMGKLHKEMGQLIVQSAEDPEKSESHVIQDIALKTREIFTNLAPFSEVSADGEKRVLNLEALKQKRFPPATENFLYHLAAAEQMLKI
UniProt Q8TF46, whole entry, looked up: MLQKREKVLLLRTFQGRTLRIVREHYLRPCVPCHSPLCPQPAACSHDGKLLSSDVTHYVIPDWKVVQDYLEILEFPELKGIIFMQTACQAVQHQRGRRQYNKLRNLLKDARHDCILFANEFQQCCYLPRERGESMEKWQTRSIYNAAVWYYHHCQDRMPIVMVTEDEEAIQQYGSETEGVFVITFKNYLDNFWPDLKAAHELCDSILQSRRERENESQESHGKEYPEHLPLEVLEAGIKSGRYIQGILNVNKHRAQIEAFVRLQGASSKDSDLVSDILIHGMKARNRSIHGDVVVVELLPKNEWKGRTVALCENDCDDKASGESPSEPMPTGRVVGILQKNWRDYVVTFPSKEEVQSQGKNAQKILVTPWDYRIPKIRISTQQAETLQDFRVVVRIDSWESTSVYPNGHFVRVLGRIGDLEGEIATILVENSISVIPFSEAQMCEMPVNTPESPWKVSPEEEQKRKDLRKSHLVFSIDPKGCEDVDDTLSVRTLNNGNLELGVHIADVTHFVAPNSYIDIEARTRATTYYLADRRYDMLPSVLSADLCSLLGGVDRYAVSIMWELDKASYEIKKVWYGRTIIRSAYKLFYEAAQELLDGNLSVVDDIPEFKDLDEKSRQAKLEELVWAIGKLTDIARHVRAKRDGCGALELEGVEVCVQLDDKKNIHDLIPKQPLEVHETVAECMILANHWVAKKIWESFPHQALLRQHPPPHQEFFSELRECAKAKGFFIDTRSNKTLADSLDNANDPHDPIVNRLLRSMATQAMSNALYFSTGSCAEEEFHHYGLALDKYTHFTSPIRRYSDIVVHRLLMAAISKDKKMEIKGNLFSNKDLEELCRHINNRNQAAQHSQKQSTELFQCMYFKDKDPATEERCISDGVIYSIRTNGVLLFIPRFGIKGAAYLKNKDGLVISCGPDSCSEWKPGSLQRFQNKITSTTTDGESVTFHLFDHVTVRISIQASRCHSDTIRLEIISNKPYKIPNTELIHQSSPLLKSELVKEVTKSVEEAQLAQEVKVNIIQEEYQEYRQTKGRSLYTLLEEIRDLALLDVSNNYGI
UniProt P09622, whole entry, looked up: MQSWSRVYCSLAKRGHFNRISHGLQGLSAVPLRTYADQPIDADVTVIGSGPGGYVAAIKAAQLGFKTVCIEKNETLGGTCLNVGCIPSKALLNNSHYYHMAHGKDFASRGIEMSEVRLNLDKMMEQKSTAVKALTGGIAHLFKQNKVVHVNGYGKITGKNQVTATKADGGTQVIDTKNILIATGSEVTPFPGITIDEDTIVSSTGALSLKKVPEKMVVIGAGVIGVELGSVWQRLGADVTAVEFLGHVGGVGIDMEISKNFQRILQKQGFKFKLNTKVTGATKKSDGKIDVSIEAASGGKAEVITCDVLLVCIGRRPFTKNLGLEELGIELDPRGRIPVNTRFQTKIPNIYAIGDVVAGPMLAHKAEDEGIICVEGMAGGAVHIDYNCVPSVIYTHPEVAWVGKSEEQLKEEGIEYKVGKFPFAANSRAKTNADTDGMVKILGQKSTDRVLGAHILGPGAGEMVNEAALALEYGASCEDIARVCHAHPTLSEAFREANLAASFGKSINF
UniProt O00148, whole entry, looked up: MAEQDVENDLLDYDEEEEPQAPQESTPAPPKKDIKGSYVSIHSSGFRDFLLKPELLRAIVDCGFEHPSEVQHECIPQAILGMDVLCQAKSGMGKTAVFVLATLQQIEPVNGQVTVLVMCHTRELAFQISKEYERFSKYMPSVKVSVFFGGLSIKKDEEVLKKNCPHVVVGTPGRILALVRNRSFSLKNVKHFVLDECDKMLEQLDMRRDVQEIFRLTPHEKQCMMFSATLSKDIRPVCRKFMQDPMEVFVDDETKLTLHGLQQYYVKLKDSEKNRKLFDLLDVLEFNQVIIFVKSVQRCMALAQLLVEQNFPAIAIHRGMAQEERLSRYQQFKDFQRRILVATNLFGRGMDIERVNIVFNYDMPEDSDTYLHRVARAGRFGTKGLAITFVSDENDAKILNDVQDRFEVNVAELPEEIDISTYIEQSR
UniProt Q6ICB0: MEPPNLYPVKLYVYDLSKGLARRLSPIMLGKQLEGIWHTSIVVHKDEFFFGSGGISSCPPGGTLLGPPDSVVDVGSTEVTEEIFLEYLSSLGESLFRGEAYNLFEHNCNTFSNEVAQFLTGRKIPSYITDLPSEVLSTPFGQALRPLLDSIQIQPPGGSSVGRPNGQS
UniProt P23743: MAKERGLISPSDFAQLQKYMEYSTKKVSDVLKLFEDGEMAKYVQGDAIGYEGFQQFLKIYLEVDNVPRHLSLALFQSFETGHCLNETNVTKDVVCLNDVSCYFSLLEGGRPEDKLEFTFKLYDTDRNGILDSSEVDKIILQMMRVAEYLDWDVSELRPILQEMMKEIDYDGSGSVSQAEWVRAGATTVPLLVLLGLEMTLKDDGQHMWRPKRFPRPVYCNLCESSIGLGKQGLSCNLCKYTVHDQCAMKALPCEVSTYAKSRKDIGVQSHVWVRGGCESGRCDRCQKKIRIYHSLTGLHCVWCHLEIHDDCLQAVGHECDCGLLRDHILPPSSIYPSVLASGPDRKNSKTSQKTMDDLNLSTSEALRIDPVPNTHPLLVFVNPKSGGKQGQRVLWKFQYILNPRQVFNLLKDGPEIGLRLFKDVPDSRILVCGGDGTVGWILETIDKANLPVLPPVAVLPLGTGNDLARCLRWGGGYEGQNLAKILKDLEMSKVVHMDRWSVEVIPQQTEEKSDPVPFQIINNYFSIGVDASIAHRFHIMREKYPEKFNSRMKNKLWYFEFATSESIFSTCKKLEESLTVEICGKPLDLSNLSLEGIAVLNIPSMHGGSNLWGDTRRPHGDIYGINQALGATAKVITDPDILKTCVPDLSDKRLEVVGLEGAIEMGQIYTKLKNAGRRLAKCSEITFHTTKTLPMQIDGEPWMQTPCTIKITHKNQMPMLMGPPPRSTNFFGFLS
UniProt P49366: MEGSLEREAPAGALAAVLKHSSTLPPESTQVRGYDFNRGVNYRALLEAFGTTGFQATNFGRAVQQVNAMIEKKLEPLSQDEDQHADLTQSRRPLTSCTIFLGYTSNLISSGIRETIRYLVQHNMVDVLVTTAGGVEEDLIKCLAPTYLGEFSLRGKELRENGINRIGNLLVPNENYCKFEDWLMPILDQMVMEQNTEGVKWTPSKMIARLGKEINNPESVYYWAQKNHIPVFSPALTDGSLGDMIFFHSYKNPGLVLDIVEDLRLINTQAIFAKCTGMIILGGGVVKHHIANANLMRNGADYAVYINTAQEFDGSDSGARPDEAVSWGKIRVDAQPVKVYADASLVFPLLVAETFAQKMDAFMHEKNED
UniProt Q16531, whole entry, looked up: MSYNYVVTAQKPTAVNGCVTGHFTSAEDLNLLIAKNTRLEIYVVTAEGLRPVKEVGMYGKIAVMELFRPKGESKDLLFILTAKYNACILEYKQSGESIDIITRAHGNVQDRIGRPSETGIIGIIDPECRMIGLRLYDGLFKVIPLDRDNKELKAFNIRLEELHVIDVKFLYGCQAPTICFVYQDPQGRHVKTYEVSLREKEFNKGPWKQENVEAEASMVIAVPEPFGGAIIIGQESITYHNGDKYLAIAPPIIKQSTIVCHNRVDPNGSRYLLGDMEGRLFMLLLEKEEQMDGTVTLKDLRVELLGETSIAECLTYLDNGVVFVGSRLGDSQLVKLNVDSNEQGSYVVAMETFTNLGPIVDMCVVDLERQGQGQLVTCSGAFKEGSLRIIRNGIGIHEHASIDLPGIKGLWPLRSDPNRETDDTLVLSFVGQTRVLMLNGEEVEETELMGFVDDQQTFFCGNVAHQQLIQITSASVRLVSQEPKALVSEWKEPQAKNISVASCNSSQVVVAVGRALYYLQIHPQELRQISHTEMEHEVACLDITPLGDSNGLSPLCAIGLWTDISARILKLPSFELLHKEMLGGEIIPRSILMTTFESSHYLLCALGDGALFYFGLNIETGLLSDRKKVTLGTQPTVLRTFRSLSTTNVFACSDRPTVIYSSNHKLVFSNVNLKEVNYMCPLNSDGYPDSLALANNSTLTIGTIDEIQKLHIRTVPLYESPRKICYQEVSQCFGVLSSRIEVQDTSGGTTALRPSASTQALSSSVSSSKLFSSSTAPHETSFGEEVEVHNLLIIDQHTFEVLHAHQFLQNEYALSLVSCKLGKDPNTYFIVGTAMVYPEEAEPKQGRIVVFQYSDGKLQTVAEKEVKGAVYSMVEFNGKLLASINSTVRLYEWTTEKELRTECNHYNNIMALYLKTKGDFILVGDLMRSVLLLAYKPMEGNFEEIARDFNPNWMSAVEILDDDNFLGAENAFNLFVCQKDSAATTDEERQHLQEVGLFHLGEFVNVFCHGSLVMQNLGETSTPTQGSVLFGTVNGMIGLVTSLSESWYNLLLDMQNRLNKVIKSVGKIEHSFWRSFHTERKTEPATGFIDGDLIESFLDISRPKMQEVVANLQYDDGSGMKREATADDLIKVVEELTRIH
UniProt P52429: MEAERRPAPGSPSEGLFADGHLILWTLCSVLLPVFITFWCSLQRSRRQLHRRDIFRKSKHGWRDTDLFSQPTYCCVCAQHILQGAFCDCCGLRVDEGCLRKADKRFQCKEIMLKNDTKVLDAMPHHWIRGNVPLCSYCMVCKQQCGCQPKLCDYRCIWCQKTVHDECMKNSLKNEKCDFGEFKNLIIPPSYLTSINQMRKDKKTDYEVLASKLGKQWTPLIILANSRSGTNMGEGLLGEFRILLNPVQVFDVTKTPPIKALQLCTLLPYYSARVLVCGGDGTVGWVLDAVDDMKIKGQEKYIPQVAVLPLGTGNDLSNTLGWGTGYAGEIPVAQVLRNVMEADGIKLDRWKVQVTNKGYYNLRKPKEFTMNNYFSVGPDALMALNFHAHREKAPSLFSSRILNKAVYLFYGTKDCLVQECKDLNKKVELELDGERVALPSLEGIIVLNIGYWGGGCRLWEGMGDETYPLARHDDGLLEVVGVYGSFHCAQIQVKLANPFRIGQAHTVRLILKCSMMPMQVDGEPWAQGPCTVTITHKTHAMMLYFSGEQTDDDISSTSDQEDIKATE
UniProt Q6UX07: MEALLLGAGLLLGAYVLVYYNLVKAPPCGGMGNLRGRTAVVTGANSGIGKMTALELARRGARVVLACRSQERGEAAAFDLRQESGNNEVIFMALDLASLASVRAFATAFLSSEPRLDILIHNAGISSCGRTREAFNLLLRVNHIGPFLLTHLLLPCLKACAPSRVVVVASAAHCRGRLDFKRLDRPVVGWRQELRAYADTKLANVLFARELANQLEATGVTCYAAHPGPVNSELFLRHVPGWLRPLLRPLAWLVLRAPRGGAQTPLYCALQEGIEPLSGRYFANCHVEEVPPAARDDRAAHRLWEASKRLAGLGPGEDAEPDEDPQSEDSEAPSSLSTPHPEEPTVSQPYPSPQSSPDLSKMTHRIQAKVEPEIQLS

[2] = compound: C/C(=N\NC(=O)C1=CC(=CC=C1)S(=O)(=O)N2CCOCC2)/C3=C(C=CC(=C3)Cl)O
Procedure, shortened: as §1

[3] = compound: C1=CC(=C(C=C1Cl)C2=NC3=NC=CN=C3C(=N2)NC4=CC=NC=C4)F
Procedure, shortened: as §1

[4] = compound: C1=CC(=CC=C1C2=NC3=C(N2)C=C(C=C3)C(=O)N)OC4=CC=C(C=C4)Cl
Procedure, shortened: as §1

[5] = compound: C1=CC2=C(C=CC(=C2)/C=C\3/C(=O)NC(=NCC4=CC=CS4)S3)N=C1
Procedure, shortened: as §1

[6] = compound: C1=CC2=NC=CN=C2C=C1/C=C/3\C(=O)NC(=O)S3
Procedure, shortened: as §1

[7] = compound: C1=CC=C(C=C1)C2=NC(=C(N2)C3=CC=NC=C3)C4=CC(=C(C=C4)Cl)O
Procedure, shortened: as §1

[8] = compound: C1=CC=C2C(=C1)C3=NNC4=CC=CC(=C43)C2=O
Procedure, shortened: as §1

[9] = compound: C1CCN(C1)C(=O)NC2=CC=CC(=C2)NC3=NC=C(C(=N3)NCCC4=CN=CN4)Br
Procedure, shortened: as §1

[10] = compound: C1CN(CCC1(CC2=CC=C(C=C2)Cl)N)C3=NC=NC4=C3C=CN4
Procedure, shortened: as §1

[11] = compound: C1COCCN1CCN2C3=CC=CC=C3N=C2NC(=O)C4=CC(=CC=C4)[N+](=O)[O-] [IRAK-1-4 Inhibitor I]
Procedure, shortened: as §1

[12] = compound: C=CC(=O)N1CCC[C@@H](n2nc(-c3ccc(Oc4ccccc4)cc3)c3c(N)ncnc32)C1 [ibrutinib]
Procedure, shortened: as §1

[13] = compound: CC(=O)c1cnc2ccc(-c3cc(Cl)c(O)c(Cl)c3)nc2c1N[C@H]1CC[C@H](CN(C)C)CC1
Procedure, shortened: as §1

[14] = compound: CC(C)(C)Cn1c(N)nc2ccc(-c3[nH]c(C(C)(C)C)nc3-c3ccc(F)cc3)nc21 [ralimetinib]
Procedure, shortened: as §1

[15] = compound: CC(C)(O)CC(=O)NCCn1ccc2ncnc(Nc3ccc(Oc4cccc(C(F)(F)F)c4)c(Cl)c3)c21
Procedure, shortened: as §1

[16] = compound: CC(C)C1=C2N=C(C=C(N2N=C1)NCC3=CC=CC=C3)NCCCCCCN
Procedure, shortened: as §1

[17] = compound: CC(C)C[C@@H](C=O)NC(=O)[C@H](CC(C)C)NC(=O)[C@H](CC(C)C)NC(=O)OCc1ccccc1
Procedure, shortened: as §1

[18] = compound: CC(C)N(C[C@H]1O[C@@H](n2cnc3c(N)ncnc32)[C@H](O)[C@@H]1O)[C@H]1C[C@@H](CCc2nc3cc(C(C)(C)C)ccc3[nH]2)C1 [pinometostat]
Procedure, shortened: as §1

[19] = compound: CC1=C(C2=C(C=C1)C(=O)C3=CC=CC=C3N2CCCN)C
Procedure, shortened: as §1

[20] = compound: CC1=C(C(CC(=O)N1)C2=CC=C(C=C2)C(F)(F)F)C(=O)NC3=C(C=C4C(=C3)C=NN4)F
Procedure, shortened: as §1

Measured: log2 fold change

DHRS1 (UniProt Q96LJ7)
inactive: [1] -0.045 | [3] -0.02 | [4] -0.105 | [5] 0.353 | [6] -0.034 | [8] -0.163 | [9] -0.163 | [10] -0.021 | [11] 0.037 | [12] 0.105 | [13] 0.045 | [14] 0.014 | [15] 0 | [16] 0.614 | [17] 0.21 | [18] -0.087 | [19] 0.071
active: [2] 0.995 | [7] 0.813

DDX27 (UniProt Q96GQ7)
inactive: [1] 0.104 | [2] -0.116 | [3] -0.287 | [4] 0.015 | [5] 0.059 | [7] -0.039 | [8] 0.025 | [9] -0.064 | [10] -0.259 | [11] -0.037 | [13] 0.115 | [14] 0.04 | [15] 0.106 | [16] -0.177 | [17] 0.104 | [18] 0.311 | [19] -0.351

DENND10 (UniProt Q8TCE6)
inactive: [1] -0.01 | [2] -0.005 | [3] -0.049 | [4] -0.08 | [5] -0.051 | [6] 0.018 | [7] 0 | [8] -0.04 | [9] 0.063 | [10] 0.083 | [12] 0.037 | [13] 0 | [14] -0.003 | [15] -0.025 | [16] -0.119 | [17] 0.016 | [19] -0.185

DIS3L (UniProt Q8TF46)
inactive: [1] -0.08 | [2] 0.038 | [3] -0.165 | [4] 0.031 | [5] 0.012 | [7] 0.051 | [8] 0.162 | [9] 0.085 | [10] 0.069 | [11] -0.114 | [13] -0.011 | [14] 0.137 | [15] 0.092 | [16] -0.451 | [17] 0.043 | [18] -0.096 | [20] 0.061 | [19] -0.025

DHX37 (UniProt Q8IY37)
inactive: [1] 0.134 | [2] -0.109 | [3] -0.291 | [4] 0.011 | [5] 0.193 | [8] -0.008 | [13] -0.165 | [15] -0.024 | [16] -0.051

DLD (UniProt P09622)
inactive: [1] 0.001 | [2] -0.018 | [3] 0.044 | [4] -0.083 | [5] -0.007 | [6] -0.018 | [7] 0.032 | [8] -0.018 | [9] 0.031 | [10] 0.054 | [11] 0.079 | [12] 0.007 | [13] 0.043 | [14] -0.004 | [15] -0.043 | [16] -0.125 | [17] -0.029 | [18] 0.001 | [19] -0.008

DDX39A (UniProt O00148)
active: [16] -0.327
inactive: [1] 0.038 | [2] 0.027 | [3] 0.031 | [4] -0.03 | [5] -0.026 | [6] -0.068 | [7] -0.026 | [8] -0.059 | [9] -0.007 | [10] -0.019 | [11] -0.034 | [12] 0.099 | [13] -0.224 | [14] 0.003 | [15] -0.142 | [17] 0.042 | [18] 0.075 | [19] -0.28

DICER1 (UniProt Q9UPY3)
inactive: [1] 0.067 | [2] -0.115 | [3] -0.329 | [4] 0.086 | [5] 0.02 | [6] -0.041 | [7] 0.09 | [8] -0.104 | [9] -0.063 | [10] -0.066 | [12] -0.054 | [13] 0.102 | [14] 0.168 | [15] 0.039 | [16] -0.005 | [17] 0.032 | [20] -0.036 | [19] 0.07

DMXL2 isoform 3 (UniProt Q8TDJ6)
inactive: [1] 0.194 | [2] -0.063 | [3] -0.033 | [4] -0.054 | [5] 0.208 | [6] -0.121 | [7] -0.024 | [8] -0.019 | [9] 0.164 | [10] 0.005 | [12] 0.282 | [13] -0.064 | [14] -0.095 | [15] -0.075 | [16] -0.197 | [17] -0.047 | [19] 0.047

Quoted from the results shown (2 entries):
DLD (UniProt P09622)
inactive: [1] 0.001 | [2] -0.018 | [3] 0.044 | [4] -0.083 | [5] -0.007 | [6] -0.018 | [7] 0.032 | [8] -0.018 | [9] 0.031 | [10] 0.054 | [11] 0.079 | [12] 0.007 | [13] 0.043 | [14] -0.004 | [15] -0.043 | [16] -0.125 | [17] -0.029 | [18] 0.001 | [19] -0.008

DDX39A (UniProt O00148)
active: [16] -0.327
inactive: [1] 0.038 | [2] 0.027 | [3] 0.031 | [4] -0.03 | [5] -0.026 | [6] -0.068 | [7] -0.026 | [8] -0.059 | [9] -0.007 | [10] -0.019 | [11] -0.034 | [12] 0.099 | [13] -0.224 | [14] 0.003 | [15] -0.142 | [17] 0.042 | [18] 0.075 | [19] -0.28

The list goes on:

DESI1 (UniProt Q6ICB0)
inactive: [1] -0.041 | [2] -0.012 | [4] 0.017 | [5] 0.147 | [6] 0.099 | [8] 0.056 | [9] -0.22 | [10] 0.023 | [12] -0.014 | [13] -0.044 | [16] 0.071 | [19] 0.052

DGKA (UniProt P23743)
inactive: [1] 0.011 | [3] 0.176 | [4] 0.368 | [6] -0.037 | [7] -0.037 | [12] 0.135 | [14] -0.304 | [15] 0 | [16] -0.222 | [17] 0.189

DDX4 (UniProt Q9NQI0)
inactive: [1] 0.576 | [2] -0.071 | [3] -0.23 | [4] -0.056 | [5] 0.006 | [6] 0 | [7] -0.305 | [8] 0.006 | [9] 0.053 | [10] -0.273 | [11] -0.033 | [12] -0.046 | [13] -0.035 | [14] -0.063 | [15] 0.203 | [16] 0.02 | [17] 0.239 | [18] 0.24 | [19] 0.033

DHPS (UniProt P49366)
inactive: [1] 0 | [2] -0.01 | [3] 0.088 | [4] -0.002 | [5] -0.034 | [6] 0.033 | [7] 0.024 | [8] -0.004 | [9] -0.007 | [10] 0.021 | [11] 0.011 | [12] -0.004 | [13] 0.02 | [14] -0.04 | [15] -0.043 | [16] 0.047 | [17] -0.012 | [18] -0.095 | [19] -0.027

DHX36 (UniProt Q9H2U1)
inactive: [1] -0.089 | [2] 0.013 | [3] -0.08 | [4] 0.031 | [5] -0.072 | [6] 0.011 | [7] 0.044 | [8] -0.023 | [9] 0.047 | [10] -0.066 | [11] -0.053 | [12] 0.014 | [13] 0.001 | [14] 0.111 | [15] 0.009 | [16] -0.025 | [17] 0.056 | [18] 0.153 | [19] -0.206

DDB1 (UniProt Q16531)
inactive: [1] -0.03 | [2] 0.006 | [3] 0.009 | [4] 0.022 | [5] 0.003 | [6] 0.014 | [7] -0.019 | [8] -0.032 | [9] 0.018 | [10] 0.04 | [11] 0.038 | [12] 0.026 | [13] 0.002 | [14] -0.053 | [15] -0.008 | [16] 0.071 | [17] -0.017 | [18] -0.03 | [19] -0.001

DIDO1 (UniProt Q9BTC0)
inactive: [1] -0.019 | [2] -0.126 | [3] 0.011 | [4] 0.004 | [5] -0.033 | [7] 0.087 | [8] -0.031 | [9] -0.191 | [10] -0.018 | [11] -0.052 | [13] 0.085 | [14] 0.122 | [15] -0.102 | [16] -0.163 | [17] -0.01 | [18] 0.124 | [19] -0.091

DGKE (UniProt P52429)
inactive: [1] 0.085 | [2] -0.151 | [4] 0.006 | [5] -0.031 | [6] 0.263 | [8] 0.015 | [9] -0.061 | [10] -0.039 | [11] -0.039 | [12] -0.361 | [13] -0.012 | [16] -0.245 | [18] -0.06 | [20] -0.114 | [19] 0.188

DHRS13 (UniProt Q6UX07)
inactive: [1] 0.014 | [2] 0.043 | [4] -0.006 | [5] 0.037 | [7] 0.073 | [8] 0.047 | [9] -0.009 | [10] 0.065 | [11] -0.275 | [13] -0.051 | [14] 0.035 | [16] -0.007 | [17] 0.144 | [18] 0.224 | [19] -0.085

DHFR (UniProt P00374)
inactive: [1] 0.156 | [2] 0 | [3] -0.176 | [4] -0.144 | [5] 0.03 | [6] 0.043 | [7] 0.055 | [8] 0.049 | [9] -0.047 | [10] -0.015 | [11] -0.065 | [12] -0.008 | [13] -0.06 | [14] 0.192 | [15] -0.044 | [16] 0.101 | [17] 0.083 | [18] 0.255 | [19] 0.2
